In patent US11359184:

Key:
Experiment in all cases: activity assay
[1] = molecular target: T7 RNA polymerase variant SEQ ID NO:70 (UniProt P00573); settings: improved thermostability at 50 C versus wild type; purified recombinant protein; protein details: N-terminal His6
[2] = molecular target: SS07-T7 fusion (sso7d DBD fused to T7 RNAP) (UniProt P00573); settings: molecular beacon transcription assay; more active at high temperature than wild type; purified recombinant protein; protein details: His6, sso7d fusion
[3] = molecular target: 007-T7 fusion (Thermotoga lacI-like DBD fused to T7 RNAP) (UniProt P00573); settings: molecular beacon transcription assay; more active at high temperature than wild type; purified recombinant protein; protein details: His6, DBD fusion
[4] = molecular target: T7 RNA polymerase wild type (UniProt P00573); settings: in vitro transcription; activity lost at high temperature; Mg2+; purified recombinant protein; protein details: N-terminal His6
[5] = molecular target: 109-T7 fusion (Pyrococcus furiosus HTH DBD fused to T7 RNAP) (UniProt P00573); settings: molecular beacon transcription assay; more active at high temperature than wild type; purified recombinant protein; protein details: His6, DBD fusion

Measured: activity on this sequence

TAATACGACTCACTATAG (double strand) [T7 promoter in linear DNA template]
active: all assays above
